Source: the supplement of paper PMC8326762, “A Small Molecule Inhibitor of Pex3–Pex19 Interaction Disrupts Glycosome Biogenesis and Causes Lethality in Trypanosoma brucei” (Frontiers in Cell and Developmental Biology, 2021)
Counter-ions that a name gives are not always drawn. The list shows a part of the results. Single values of this set are uncertain.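 Yeast growth was read as optical density at 600 nm. The two-hybrid strains grew without histidine, so growth needed the Pex3–Pex19 binding; a compound counted as trypanosome-selective if it cut growth of the trypanosome-pair strain by more than 65% and the human-pair strain by less than 65%.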

Key:
[1] = test system: Saccharomyces cerevisiae HF7c pdr5Δ; experiment: general growth inhibition of yeast HF7c pdr5Δ in -Leu -Trp medium, relative to DMSO; higher = stronger general growth inhibition; conditions: 100 µM; 24 h
[2] = test system: human PEX3-PEX19 interaction (yeast two-hybrid); experiment: growth inhibition of yeast two-hybrid strain reporting HsPex3-HsPex19 interaction, relative to DMSO; higher = stronger inhibition of human Pex3-Pex19 interaction / growth; conditions: 100 µM; 24 h; 3-aminotriazole 10 mM
[3] = test system: T. brucei Pex3-Pex19 interaction (yeast two-hybrid); experiment: growth inhibition of yeast two-hybrid strain reporting TbPex3-TbPex19 interaction, relative to DMSO; higher = stronger inhibition of T. brucei Pex3-Pex19 interaction / growth; conditions: 100 µM; 24 h

Row | Structure (SMILES) | general growth inhibition [1] [%] | growth inhibition [2] [%] | growth inhibition [3] [%]
1 | CN1[C@@H]2CC[C@H]1C[C@@H](OC(=O)[C@H](CO)c1ccccc1)C2 [L-Hyoscyamine] | 26.6 | 34.8 | 55.2
2 | CCCn1c(=O)c2[nH]c(C3CCCC3)nc2n(CCCOC(=O)c2ccc(S(=O)(=O)F)cc2)c1=O | 29.6 | 13.2 | 39.1
3 | CC(C)(C)c1cc(C(C)(C)C)c2c(c1)C(O)(C(F)(F)F)C(=O)O2 (racemic) | 88.8 | 85.1 | 82.3
4 | CCCN(CCC)C1CCc2cccc(O)c2C1 (racemic) [(±)-8-Hydroxy-DPAT hydrobromide] | 38.8 | 48.6 | 50.6
5 | Clc1cc(I)cc(Cl)c1NC1=NCCN1 [p-Iodoclonidine hydrochloride] | 44.3 | 42.9 | 67.9
6 | C[C@@H]1O[C@@H](O[C@H]2C[C@@H](O)[C@]3(CO)[C@H]4[C@H](O)C[C@]5(C)[C@@H]([C@@H]6COC(=O)C6)CC[C@]5(O)[C@@H]4CC[C@]3(O)C2)[C@H](O)[C@H](O)[C@H]1O [Dihydroouabain] | 43.1 | 47.4 | 59.8
7 | O=C(CCCN1CCC2(CC1)C(=O)NCN2c1ccccc1)c1ccc(F)cc1 [Spiperone hydrochloride] | 54.3 | 31.7 | 60.3
8 | N=C(NCCC[C@H](N)C(=O)O)N[N+](=O)[O-] [NG-Nitro-L-arginine] | 44.6 | 42.4 | 54.7
9 | CN1CCC[C@@H]1Cc1c[nH]c2ccc(Nc3ncccc3[N+](=O)[O-])cc12 | 8.71 | -1.43 | 32
10 | O=C(O)Cc1cnc[nH]1 [Imidazole-4-acetic acid hydrochloride] | 34.4 | 40 | 61.6
11 | NCc1cc(O)no1 [Muscimol hydrobromide] | 33.8 | 39.6 | 52.5
12 | C[N+]1(C)CCOC(O)(c2ccc(-c3ccc(C4(O)C[N+](C)(C)CCO4)cc3)cc2)C1 (centres undefined) [Hemicholinium-3] | 10.9 | 20.8 | 23.4
13 | NC(N)=Nc1ccc2[nH]c3c(c2c1)C[C@@]1(O)[C@H]2Cc4ccc(O)c5c4[C@@]1(CCN2CC1CC1)[C@H]3O5 [Guanidinyl-naltrindole di-trifluoroacetate] | 80.2 | 81.7 | 68.4
14 | NC(Cn1oc(=O)[nH]c1=O)C(=O)O (single isomer, unassigned; (+)) [(+)-Quisqualic acid] | 32.3 | 43.4 | 58.8
15 | Clc1ccc(N2CCN(Cc3c[nH]c4ncccc34)CC2)cc1 [L-745,870 hydrochloride] | 27.5 | 24.9 | 53
16 | Cc1ncc(CNC(=O)N(CCCl)N=O)c(N)n1 [Nimustine hydrochloride] | 55 | 37 | 60.7
17 | CC(C)C[C@H]1C(=O)N2CCC[C@H]2[C@]2(O)O[C@](NC(=O)[C@@H]3C=C4c5cccc6[nH]c(Br)c(c56)C[C@H]4N(C)C3)(C(C)C)C(=O)N12 [(+)-Bromocriptine methanesulfonate] | 28.7 | 19.8 | 34
18 | CCCN(CCC)C1CCc2ccc(O)cc2C1 (stereo not drawn) [R-(+)-7-Hydroxy-DPAT hydrobromide] | 15.2 | 38.5 | 57.9
19 | COc1cc2c(cc1OC)C1CC(=O)C(CC(C)C)CN1CC2 (centres undefined) [Tetrabenazine] | 44.4 | 37.6 | 69.1
20 | Cc1ccc(S(=O)(=O)N[C@@H](CCCCN)C(=O)CCl)cc1 [Na-p-Tosyl-L-lysine chloromethyl ketone hydrochloride] | 58.3 | 45.4 | 70.1
21 | C/C=C(/C)C(=O)O[C@H]1C(C)=C2[C@H]([C@@H]1OC(=O)CCCCCCC)[C@@](C)(OC(C)=O)C[C@H](OC(=O)CCC)[C@@]1(O)[C@H]2OC(=O)[C@@]1(C)O [Thapsigargin] | 39.2 | 33.7 | 55.7
22 | OC1CCCCC1N1CCC(c2ccccc2)CC1 (racemic) [(±)-Vesamicol hydrochloride] | 56.5 | 55.6 | 70.1
23 | CC(C)C1CNC(C(=O)O)C1CC(=O)O (centres undefined) [Dihydrokainic acid] | 35.1 | 47.1 | 61.7
24 | C[N+]1(C)[C@@H]2C[C@@H](OC(=O)[C@H](CO)c3ccccc3)C[C@H]1[C@@H]1O[C@@H]12 [(-)-Scopolamine methyl bromide] | 39.8 | 45 | 63.8
25 | CCCC[N+]1(C)[C@@H]2C[C@@H](OC(=O)[C@H](CO)c3ccccc3)C[C@H]1[C@@H]1O[C@@H]12 (single isomer, unassigned; (-)) [(-)-Scopolamine,n-Butyl-, bromide] | 52.3 | 49.6 | 69.8
26 | C[N+]1(C)[C@@H]2CC[C@H]1C[C@@H](OC(=O)C(CO)c1ccccc1)C2 (some centres undefined) [Atropine methyl bromide] | 52.7 | 48.2 | 61.3
27 | Cc1ncsc1CCCl [Chlormethiazole hydrochloride] | 34.6 | 40 | 51.6
28 | NCCc1c[nH]c2ccc(O)cc12 [Serotonin hydrochloride] | 37.8 | 40.2 | 62

Laid out differently: entries from further up.

| Row | Structure (SMILES) | general growth inhibition [1] [%] | growth inhibition [2] [%] | growth inhibition [3] [%] |
| --- | --- | --- | --- | --- |
| 10 | O=C(O)Cc1cnc[nH]1 [Imidazole-4-acetic acid hydrochloride] | 34.4 | 40 | 61.6 |
| 11 | NCc1cc(O)no1 [Muscimol hydrobromide] | 33.8 | 39.6 | 52.5 |
